The IC50 is the concentration that inhibits the measured activity by half. High values mean weaker potency, low ones greater potency.

One test concerns Jurkat. In words: Cytotoxicity against human Jurkat cells after 48 hrs by MTT assay. Format: functional, cell-based. A general note: Tetrazolium assays rely on reduction of a dye to a coloured formazan, in cell work by metabolically active cells.
Another test relates to MDA-MB-231. In words: Antimigratory activity against human MDA-MB-231 cells after 6 hrs by Boyden chamber migration assay. In kind it is functional, cell-based. The settings on record: MDA-MB-231, 6 h.

Take `COc1cc2c(c(OC)c1OC)-c1ccc(OC)c(=O)cc1[C@@H](NC(C)=O)CC2` [COLCHICINE]: the half-maximal inhibitory concentration (IC50) in the test with Jurkat stood at 7.7 nM; with MDA-MB-231, 475 nM.

(Values after ChEMBL document CHEMBL2375311, “Cytotoxic 3,4,5-trimethoxychalcones as mitotic arresters and cell migration inhibitors” (Eur J Med Chem, 2013).)
